The values that follow come from PMC12166087.

Sequences of proteins named here, by UniProt entry; tags and fusion partners are left off.
UniProt Q13772: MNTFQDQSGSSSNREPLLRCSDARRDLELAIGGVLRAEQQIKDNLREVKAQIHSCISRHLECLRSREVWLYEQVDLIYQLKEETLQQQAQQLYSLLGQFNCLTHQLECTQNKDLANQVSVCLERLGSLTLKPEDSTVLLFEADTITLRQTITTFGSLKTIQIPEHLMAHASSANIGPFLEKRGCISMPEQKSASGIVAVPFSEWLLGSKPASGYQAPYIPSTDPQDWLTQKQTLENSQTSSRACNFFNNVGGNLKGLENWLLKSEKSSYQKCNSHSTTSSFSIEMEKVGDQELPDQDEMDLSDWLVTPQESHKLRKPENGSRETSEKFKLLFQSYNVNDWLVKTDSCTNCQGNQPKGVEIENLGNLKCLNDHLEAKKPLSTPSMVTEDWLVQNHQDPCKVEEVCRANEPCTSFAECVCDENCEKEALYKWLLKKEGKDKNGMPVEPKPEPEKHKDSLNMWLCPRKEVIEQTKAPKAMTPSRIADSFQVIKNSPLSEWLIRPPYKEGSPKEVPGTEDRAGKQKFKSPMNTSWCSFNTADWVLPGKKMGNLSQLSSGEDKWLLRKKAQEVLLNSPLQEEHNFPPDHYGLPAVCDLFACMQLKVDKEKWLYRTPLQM

Results are given in words; binding and its absence hold for the method and conditions named. In cells and extracts the contact can be indirect. Some binding calls cover weakened binding; strength is not graded here.

The target of this test is T1, Ubiquitin-specific protease 18 (USP18) (human (endogenous in HepG2)) (UniProt Q9UMW8).
T1 sequence: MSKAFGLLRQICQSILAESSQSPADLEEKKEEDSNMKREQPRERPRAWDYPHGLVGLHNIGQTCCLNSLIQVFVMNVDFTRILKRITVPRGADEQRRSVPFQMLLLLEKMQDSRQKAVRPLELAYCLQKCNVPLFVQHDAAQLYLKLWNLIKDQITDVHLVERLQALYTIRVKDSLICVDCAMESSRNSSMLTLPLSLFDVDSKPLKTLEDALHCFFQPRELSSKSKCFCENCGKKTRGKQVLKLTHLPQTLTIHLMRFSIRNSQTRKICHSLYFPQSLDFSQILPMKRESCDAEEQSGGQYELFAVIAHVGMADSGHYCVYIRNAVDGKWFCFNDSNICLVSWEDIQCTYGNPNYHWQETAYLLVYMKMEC
In words: co-IP; HepG2 cell lysates immunoprecipitated with anti-USP18 antibodies and blotted with anti-NCOA4 antibodies.

“Nuclear receptor coactivator 4 (NCOA4) (from UniProt Q13772 1-614)”: the binding result was “binds”.
